Source: the supplement of paper PMC10849652
The other results are listed elsewhere or left out. Residues, ends and D or L forms follow the SMILES beside them. *: point of attachment. Cbz = O=C(OCc1ccccc1)*

By UniProt entry, the sequences of proteins in these tests, tags left out. Where a name states a change or a piece, a line headed by the entry shows the natural chain unless it says otherwise.
UniProt Q969V5: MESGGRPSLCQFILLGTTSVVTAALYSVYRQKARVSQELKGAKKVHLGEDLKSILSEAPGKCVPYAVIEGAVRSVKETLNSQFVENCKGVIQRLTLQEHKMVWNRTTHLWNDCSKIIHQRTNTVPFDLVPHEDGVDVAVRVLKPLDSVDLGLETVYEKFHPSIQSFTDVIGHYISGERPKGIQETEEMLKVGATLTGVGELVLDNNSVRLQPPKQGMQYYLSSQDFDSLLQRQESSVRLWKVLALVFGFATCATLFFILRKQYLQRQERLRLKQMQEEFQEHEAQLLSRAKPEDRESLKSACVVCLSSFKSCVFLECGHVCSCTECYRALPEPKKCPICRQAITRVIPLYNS
UniProt Q2M296: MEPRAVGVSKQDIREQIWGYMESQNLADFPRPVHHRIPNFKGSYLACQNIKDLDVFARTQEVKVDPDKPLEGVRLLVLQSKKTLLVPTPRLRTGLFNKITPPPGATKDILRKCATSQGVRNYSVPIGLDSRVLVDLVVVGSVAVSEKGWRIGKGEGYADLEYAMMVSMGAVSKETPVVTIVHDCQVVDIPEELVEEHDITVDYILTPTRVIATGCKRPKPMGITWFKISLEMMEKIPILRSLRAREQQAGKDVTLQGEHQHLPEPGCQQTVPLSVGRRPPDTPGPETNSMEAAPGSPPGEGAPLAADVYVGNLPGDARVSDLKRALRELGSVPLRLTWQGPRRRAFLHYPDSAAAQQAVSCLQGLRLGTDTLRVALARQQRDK
UniProt P43246, whole entry, looked up: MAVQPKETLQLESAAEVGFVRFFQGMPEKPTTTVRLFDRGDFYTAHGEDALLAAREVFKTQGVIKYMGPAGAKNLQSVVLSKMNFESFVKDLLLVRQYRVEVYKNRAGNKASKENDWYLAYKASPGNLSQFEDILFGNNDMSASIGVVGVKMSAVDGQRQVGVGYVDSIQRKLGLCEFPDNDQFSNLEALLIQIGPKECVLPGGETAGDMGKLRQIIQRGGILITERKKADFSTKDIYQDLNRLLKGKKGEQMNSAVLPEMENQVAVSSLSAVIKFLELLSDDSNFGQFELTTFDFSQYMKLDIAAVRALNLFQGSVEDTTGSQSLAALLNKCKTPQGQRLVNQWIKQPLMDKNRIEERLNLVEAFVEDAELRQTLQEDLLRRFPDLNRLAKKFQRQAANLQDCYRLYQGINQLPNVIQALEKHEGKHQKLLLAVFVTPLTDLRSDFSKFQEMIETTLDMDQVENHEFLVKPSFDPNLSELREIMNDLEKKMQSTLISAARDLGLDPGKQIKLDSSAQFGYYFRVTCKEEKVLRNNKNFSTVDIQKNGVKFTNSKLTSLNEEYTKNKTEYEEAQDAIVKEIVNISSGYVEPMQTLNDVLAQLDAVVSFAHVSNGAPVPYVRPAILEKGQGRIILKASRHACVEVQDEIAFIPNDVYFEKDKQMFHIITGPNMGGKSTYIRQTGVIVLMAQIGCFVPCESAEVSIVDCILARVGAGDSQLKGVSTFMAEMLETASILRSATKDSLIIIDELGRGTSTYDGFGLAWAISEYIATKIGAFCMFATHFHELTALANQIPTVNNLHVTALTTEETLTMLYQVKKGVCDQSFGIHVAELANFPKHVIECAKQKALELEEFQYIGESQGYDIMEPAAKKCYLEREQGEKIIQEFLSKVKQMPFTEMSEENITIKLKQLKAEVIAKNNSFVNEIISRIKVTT
UniProt P03886, whole entry, looked up: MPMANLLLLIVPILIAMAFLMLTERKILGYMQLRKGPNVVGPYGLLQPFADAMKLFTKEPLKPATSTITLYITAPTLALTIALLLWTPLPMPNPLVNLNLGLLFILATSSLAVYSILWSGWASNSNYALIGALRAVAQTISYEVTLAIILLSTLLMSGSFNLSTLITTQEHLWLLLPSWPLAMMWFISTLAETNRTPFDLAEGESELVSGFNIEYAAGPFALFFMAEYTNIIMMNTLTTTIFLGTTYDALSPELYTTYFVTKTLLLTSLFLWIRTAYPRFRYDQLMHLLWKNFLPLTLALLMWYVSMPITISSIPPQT
UniProt P03928: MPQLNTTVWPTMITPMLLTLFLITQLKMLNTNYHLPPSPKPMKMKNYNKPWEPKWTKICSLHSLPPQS
UniProt P35580, whole entry, looked up: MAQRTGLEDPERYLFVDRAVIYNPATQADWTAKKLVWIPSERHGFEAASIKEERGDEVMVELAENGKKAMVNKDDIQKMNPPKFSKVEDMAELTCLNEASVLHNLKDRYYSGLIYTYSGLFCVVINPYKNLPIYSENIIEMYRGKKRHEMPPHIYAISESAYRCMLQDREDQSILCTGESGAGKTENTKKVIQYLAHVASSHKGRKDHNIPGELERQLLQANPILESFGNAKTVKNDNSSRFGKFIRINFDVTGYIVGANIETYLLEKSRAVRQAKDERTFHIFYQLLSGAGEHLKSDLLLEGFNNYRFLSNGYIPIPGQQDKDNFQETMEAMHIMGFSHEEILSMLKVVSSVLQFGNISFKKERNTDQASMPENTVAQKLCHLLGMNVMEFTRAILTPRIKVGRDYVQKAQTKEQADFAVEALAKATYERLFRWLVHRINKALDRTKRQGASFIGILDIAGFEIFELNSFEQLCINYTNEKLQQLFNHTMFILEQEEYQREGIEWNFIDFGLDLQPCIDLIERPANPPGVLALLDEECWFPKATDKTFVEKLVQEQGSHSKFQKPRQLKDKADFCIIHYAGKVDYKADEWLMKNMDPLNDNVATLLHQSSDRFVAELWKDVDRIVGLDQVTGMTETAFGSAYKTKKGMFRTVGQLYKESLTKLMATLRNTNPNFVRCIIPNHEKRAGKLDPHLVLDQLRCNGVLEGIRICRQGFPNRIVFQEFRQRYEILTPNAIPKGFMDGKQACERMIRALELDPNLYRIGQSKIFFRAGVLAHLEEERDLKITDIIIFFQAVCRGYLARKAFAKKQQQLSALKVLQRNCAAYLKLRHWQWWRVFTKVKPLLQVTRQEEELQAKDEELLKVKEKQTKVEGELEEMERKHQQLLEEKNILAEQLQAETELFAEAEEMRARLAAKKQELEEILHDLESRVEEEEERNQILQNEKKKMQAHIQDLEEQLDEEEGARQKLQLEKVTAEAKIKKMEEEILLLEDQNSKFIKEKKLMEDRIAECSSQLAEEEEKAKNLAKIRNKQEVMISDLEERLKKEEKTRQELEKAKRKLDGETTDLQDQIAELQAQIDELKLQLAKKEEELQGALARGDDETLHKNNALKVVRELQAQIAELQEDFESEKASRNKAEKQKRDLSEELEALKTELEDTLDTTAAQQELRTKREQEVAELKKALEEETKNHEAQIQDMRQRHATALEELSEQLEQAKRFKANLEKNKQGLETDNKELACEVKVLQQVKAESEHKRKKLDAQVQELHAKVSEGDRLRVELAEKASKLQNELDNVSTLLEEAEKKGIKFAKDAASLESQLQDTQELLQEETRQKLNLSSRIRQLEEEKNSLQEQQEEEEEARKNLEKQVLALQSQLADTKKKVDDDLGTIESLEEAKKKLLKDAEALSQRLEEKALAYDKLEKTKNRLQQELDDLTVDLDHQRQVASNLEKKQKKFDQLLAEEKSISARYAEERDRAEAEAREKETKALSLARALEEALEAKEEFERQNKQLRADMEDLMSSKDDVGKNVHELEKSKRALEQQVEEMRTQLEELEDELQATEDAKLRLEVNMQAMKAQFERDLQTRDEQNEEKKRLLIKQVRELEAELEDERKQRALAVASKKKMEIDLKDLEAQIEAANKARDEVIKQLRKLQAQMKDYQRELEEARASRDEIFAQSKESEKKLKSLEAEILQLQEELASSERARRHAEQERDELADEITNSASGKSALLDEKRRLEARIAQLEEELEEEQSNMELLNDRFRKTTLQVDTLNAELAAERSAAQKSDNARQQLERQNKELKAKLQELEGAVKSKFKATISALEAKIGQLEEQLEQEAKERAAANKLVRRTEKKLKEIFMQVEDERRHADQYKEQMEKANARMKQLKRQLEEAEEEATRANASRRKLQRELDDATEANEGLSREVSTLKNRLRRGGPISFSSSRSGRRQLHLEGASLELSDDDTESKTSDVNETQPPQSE
UniProt P49914: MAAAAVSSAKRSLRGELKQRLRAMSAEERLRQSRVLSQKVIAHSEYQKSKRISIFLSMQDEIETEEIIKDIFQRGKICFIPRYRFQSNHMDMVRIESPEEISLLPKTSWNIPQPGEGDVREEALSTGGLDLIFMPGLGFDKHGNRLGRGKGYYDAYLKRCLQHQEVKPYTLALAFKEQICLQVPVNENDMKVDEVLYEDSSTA
UniProt P13640: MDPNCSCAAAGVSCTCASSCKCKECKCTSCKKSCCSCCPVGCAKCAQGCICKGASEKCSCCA
UniProt P00846: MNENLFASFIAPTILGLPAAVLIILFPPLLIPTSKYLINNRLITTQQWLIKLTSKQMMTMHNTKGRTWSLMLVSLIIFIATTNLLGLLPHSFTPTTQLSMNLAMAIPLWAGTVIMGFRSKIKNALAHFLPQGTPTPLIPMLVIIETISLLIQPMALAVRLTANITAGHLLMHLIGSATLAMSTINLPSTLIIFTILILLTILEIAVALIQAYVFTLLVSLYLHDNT
UniProt P20585: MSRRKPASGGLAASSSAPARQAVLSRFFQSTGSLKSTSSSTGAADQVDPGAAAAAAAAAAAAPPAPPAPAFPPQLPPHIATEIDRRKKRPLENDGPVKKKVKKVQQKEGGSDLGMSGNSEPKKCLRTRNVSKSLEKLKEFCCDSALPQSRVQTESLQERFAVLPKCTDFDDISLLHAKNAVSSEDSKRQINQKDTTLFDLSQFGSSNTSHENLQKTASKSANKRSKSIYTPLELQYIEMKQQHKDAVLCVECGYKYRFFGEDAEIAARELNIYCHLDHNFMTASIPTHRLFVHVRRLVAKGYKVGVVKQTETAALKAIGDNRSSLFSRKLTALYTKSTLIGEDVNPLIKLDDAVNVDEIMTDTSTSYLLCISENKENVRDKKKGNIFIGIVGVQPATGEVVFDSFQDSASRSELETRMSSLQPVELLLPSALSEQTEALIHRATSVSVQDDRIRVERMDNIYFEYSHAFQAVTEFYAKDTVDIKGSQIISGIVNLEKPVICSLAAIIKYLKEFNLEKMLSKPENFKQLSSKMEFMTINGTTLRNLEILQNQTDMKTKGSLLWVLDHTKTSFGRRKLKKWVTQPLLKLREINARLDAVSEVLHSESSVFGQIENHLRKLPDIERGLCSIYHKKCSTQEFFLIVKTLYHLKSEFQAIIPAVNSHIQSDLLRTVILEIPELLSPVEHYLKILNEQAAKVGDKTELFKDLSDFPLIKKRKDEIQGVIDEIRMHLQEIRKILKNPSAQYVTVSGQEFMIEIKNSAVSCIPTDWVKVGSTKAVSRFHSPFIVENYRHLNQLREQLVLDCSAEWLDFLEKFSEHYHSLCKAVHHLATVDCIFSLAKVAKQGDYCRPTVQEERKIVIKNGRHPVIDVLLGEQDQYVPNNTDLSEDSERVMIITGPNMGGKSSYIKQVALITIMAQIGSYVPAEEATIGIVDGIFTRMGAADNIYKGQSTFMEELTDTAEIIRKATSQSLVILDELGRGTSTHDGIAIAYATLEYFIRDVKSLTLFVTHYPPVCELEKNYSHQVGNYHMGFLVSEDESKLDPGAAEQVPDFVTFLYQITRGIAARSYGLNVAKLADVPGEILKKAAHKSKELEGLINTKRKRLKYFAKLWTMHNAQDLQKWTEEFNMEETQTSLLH
UniProt O14950, whole entry, looked up: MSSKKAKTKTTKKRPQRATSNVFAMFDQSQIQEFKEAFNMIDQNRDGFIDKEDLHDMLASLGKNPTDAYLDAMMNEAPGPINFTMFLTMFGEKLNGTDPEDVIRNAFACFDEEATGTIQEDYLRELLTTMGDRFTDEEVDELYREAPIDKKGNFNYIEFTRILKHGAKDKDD
UniProt P53602: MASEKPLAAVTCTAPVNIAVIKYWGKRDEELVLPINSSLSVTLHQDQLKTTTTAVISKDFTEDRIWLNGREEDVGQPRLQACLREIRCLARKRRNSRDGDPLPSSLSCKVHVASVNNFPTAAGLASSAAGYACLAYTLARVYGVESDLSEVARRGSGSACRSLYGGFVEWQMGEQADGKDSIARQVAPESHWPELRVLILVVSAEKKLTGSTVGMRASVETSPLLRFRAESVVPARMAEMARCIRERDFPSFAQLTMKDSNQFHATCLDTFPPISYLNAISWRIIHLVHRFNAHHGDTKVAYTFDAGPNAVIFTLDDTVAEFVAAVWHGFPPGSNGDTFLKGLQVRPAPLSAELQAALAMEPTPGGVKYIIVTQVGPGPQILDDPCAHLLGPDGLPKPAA
UniProt Q9P0P8: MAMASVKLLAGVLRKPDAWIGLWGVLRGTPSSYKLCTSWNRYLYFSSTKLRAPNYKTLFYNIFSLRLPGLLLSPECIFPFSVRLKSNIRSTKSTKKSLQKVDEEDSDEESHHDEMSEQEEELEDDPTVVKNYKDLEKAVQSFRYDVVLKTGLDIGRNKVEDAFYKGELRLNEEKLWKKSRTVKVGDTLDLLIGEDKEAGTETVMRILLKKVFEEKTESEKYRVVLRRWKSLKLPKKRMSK

What was measured:
Assay in all cases: log2 fold change, soluble protein after heating vs DMSO (PISA); higher = thermal stabilisation; K562 cells, 10 uM, 30 min; active = over 0.2 and 3.5 SD of the protein, either way, in both replicates (recomputed)
IRAK-1-4 Inhibitor I = compound: C1COCCN1CCN2C3=CC=CC=C3N=C2NC(=O)C4=CC(=CC=C4)[N+](=O)[O-] [IRAK-1-4 Inhibitor I]
In short: (§1)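 K562 cells at 2×10^6 cells/mL were given 10 μM compound for 30 min. Aliquots then went through 3 min of heating across 48°C-58°C, were pooled, and were extracted in PBS with 0.5% NP-40 at 4°C, and the supernatant after 21,000xg for 90 min was quantified by TMTpro 16plex LC-MS/MS with channel sums equalised. Thermal stability relative to control samples, from duplicates, is given as log2 fold change.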

ibrutinib = compound: C=CC(=O)N1CCC[C@@H](n2nc(-c3ccc(Oc4ccccc4)cc3)c3c(N)ncnc32)C1 [ibrutinib]
In short: as §1

[1] = compound: CC(=O)c1cnc2ccc(-c3cc(Cl)c(O)c(Cl)c3)nc2c1N[C@H]1CC[C@H](CN(C)C)CC1
In short: as §1

ralimetinib = compound: CC(C)(C)Cn1c(N)nc2ccc(-c3[nH]c(C(C)(C)C)nc3-c3ccc(F)cc3)nc21 [ralimetinib]
In short: as §1

[2] = compound: CC(C)(O)CC(=O)NCCn1ccc2ncnc(Nc3ccc(Oc4cccc(C(F)(F)F)c4)c(Cl)c3)c21
In short: as §1

[3] = compound: CC(C)C1=C2N=C(C=C(N2N=C1)NCC3=CC=CC=C3)NCCCCCCN
In short: as §1

[4] = compound: CC(C)C[C@@H](C=O)NC(=O)[C@H](CC(C)C)NC(=O)[C@H](CC(C)C)NC(=O)OCc1ccccc1
In short: as §1

pinometostat = compound: CC(C)N(C[C@H]1O[C@@H](n2cnc3c(N)ncnc32)[C@H](O)[C@@H]1O)[C@H]1C[C@@H](CCc2nc3cc(C(C)(C)C)ccc3[nH]2)C1 [pinometostat]
In short: as §1

[5] = compound: CC1=C(C2=C(C=C1)C(=O)C3=CC=CC=C3N2CCCN)C
In short: as §1

[6] = compound: CC1=C(C(CC(=O)N1)C2=CC=C(C=C2)C(F)(F)F)C(=O)NC3=C(C=C4C(=C3)C=NN4)F
In short: as §1

| Target | log2 fold change (IRAK-1-4 Inhibitor I) | log2 fold change (ibrutinib) | log2 fold change [1] | log2 fold change (ralimetinib) | log2 fold change [2] | log2 fold change [3] | log2 fold change [4] | log2 fold change (pinometostat) | log2 fold change [5] | log2 fold change [6] |
| --- | --- | --- | --- | --- | --- | --- | --- | --- | --- | --- |
| MUL1 (UniProt Q969V5) | inactive: 0.009 | inactive: 0.009 | inactive: -0.113 | inactive: -0.008 | inactive: -0.068 | inactive: -0.004 | inactive: 0.027 | inactive: 0.021 | inactive: -0.01 |  |
| MRPS15 (UniProt P82914) | inactive: -0.062 | inactive: -0.022 | inactive: -0.024 | inactive: 0.014 | inactive: -0.12 | inactive: -0.041 | inactive: 0.004 | inactive: 0.041 | inactive: -0.2 |  |
| MRPS31 (UniProt Q92665) | inactive: -0.057 | inactive: 0.014 | inactive: -0.073 | inactive: -0.005 | inactive: -0.032 | inactive: -0.086 | inactive: 0.057 | inactive: 0.034 | inactive: -0.14 |  |
| MTCH2 (UniProt E9PIE4) | inactive: -0.022 | inactive: 0.056 | inactive: 0.109 |  | inactive: -0.001 | inactive: 0.01 |  | inactive: -0.146 |  | inactive: 0.079 |
| MT-ND2 (UniProt P03891) | inactive: -0.021 | inactive: -0.042 | inactive: -0.171 | inactive: -0.119 |  | inactive: -0.221 | inactive: -0.089 | inactive: -0.075 | inactive: 0.113 |  |
| MTHFSD isoform 3 (UniProt Q2M296) | inactive: -0.017 | inactive: 0.02 | inactive: 0.049 | inactive: 0.057 |  | inactive: 0.019 | inactive: 0.034 | inactive: 0.108 | inactive: 0 |  |
| MSH2 (UniProt P43246) | inactive: -0.024 | inactive: -0.066 | inactive: 0.018 | inactive: -0.031 | inactive: -0.041 | inactive: -0.019 | inactive: 0.023 | inactive: -0.023 | active: 0.357 |  |
| MT-ND1 (UniProt P03886) | inactive: 0.104 | inactive: -0.009 | inactive: -0.072 | inactive: 0.071 | inactive: -0.142 | inactive: -0.142 | inactive: -0.102 | inactive: -0.092 | inactive: 0.119 |  |
| MRPS18B (UniProt Q9Y676) | inactive: -0.026 | inactive: 0.103 | inactive: -0.096 | inactive: -0.022 | inactive: -0.025 | inactive: -0.043 | inactive: 0.137 | inactive: -0.005 | inactive: -0.068 |  |
| MRPS6 (UniProt P82932) | inactive: -0.193 | inactive: -0.007 | inactive: -0.079 | inactive: 0.012 | inactive: -0.158 | inactive: -0.003 | inactive: -0.009 | inactive: -0.007 | inactive: -0.139 |  |
| MT-ATP8 (UniProt P03928) | inactive: 0.016 | inactive: 0 | inactive: 0.012 |  | inactive: -0.062 | inactive: 0.115 |  | inactive: -0.006 | inactive: -0.029 | inactive: 0.044 |
| MYH10 isoform 3 (UniProt P35580) | inactive: 0.024 | inactive: -0.022 | inactive: -0.011 | inactive: -0.04 | inactive: -0.069 | inactive: -0.05 | inactive: -0.001 | inactive: -0.015 | inactive: -0.024 |  |
| MRPS25 (UniProt P82663) | inactive: -0.059 | inactive: 0.12 | inactive: -0.021 | inactive: -0.007 | inactive: 0.074 | inactive: -0.071 | inactive: 0.017 | inactive: -0.018 | inactive: -0.091 |  |
| MRPS12 (UniProt O15235) | inactive: 0.05 | inactive: -0.031 | inactive: -0.033 | inactive: -0.017 | inactive: -0.053 | inactive: -0.123 | inactive: 0.092 | inactive: 0.111 | inactive: -0.224 |  |
| MRPS5 (UniProt P82675) | inactive: -0.071 | inactive: 0.057 | inactive: -0.019 | inactive: 0 | inactive: -0.088 | inactive: -0.083 | inactive: 0.078 | inactive: 0.056 | inactive: -0.207 |  |
| MTHFS (UniProt P49914) | inactive: -0.003 | inactive: -0.01 | inactive: -0.009 | inactive: -0.09 | inactive: -0.095 | inactive: -0.009 | inactive: 0.007 | inactive: -0.03 | inactive: 0.031 |  |

Some of the entries so far, as comma-separated lines.
Target,log2 fold change (IRAK-1-4 Inhibitor I),log2 fold change (ibrutinib),log2 fold change [1],log2 fold change (ralimetinib),log2 fold change [2],log2 fold change [3],log2 fold change [4],log2 fold change (pinometostat),log2 fold change [5],log2 fold change [6]
MRPS5 (UniProt P82675),inactive: -0.071,inactive: 0.057,inactive: -0.019,inactive: 0,inactive: -0.088,inactive: -0.083,inactive: 0.078,inactive: 0.056,inactive: -0.207,
MTHFS (UniProt P49914),inactive: -0.003,inactive: -0.01,inactive: -0.009,inactive: -0.09,inactive: -0.095,inactive: -0.009,inactive: 0.007,inactive: -0.03,inactive: 0.031,

(cont.)

| Target | log2 fold change (IRAK-1-4 Inhibitor I) | log2 fold change (ibrutinib) | log2 fold change [1] | log2 fold change (ralimetinib) | log2 fold change [2] | log2 fold change [3] | log2 fold change [4] | log2 fold change (pinometostat) | log2 fold change [5] | log2 fold change [6] |
| --- | --- | --- | --- | --- | --- | --- | --- | --- | --- | --- |
| MTFR1L (UniProt Q9H019) | inactive: 0.04 | inactive: 0.048 | inactive: -0.052 | inactive: -0.005 | inactive: 0.014 | inactive: -0.412 | inactive: 0.047 | inactive: 0.003 | inactive: -0.05 |  |
| MRPS2 (UniProt Q9Y399) | inactive: -0.043 | inactive: 0.109 | inactive: -0.011 | inactive: -0.02 | inactive: -0.035 | inactive: -0.03 | inactive: 0.08 | inactive: 0.002 | inactive: -0.079 |  |
| MSH6 (UniProt P52701) | inactive: -0.18 | inactive: -0.088 | inactive: -0.121 | inactive: -0.024 | inactive: -0.299 | inactive: -0.544 | inactive: 0.039 | inactive: -0.005 | active: 0.884 |  |
| MRPS14 (UniProt O60783) | inactive: -0.003 | inactive: -0.03 | inactive: -0.016 | inactive: 0.05 | inactive: -0.183 |  | inactive: 0.101 | inactive: 0.068 | inactive: -0.122 | inactive: 0.016 |
| MT1G (UniProt P13640) | inactive: 0.014 | inactive: 0.035 | inactive: 0.018 | inactive: -0.029 |  | inactive: 0.148 | inactive: -0.042 | inactive: -0.073 | inactive: -0.093 | inactive: 0.091 |
| MTMR1 (UniProt Q13613) | inactive: -0.019 | inactive: -0.038 | inactive: -0.174 | inactive: 0.072 | inactive: -0.04 |  | inactive: 0.188 | inactive: 0 | inactive: 0.085 |  |
| MRPS16 (UniProt Q9Y3D3) | inactive: -0.082 | inactive: 0.02 | inactive: -0.047 | inactive: -0.008 | inactive: -0.034 | inactive: -0.19 | inactive: 0.015 | inactive: 0.021 | inactive: -0.126 |  |
| MYO9A isoform 4 (UniProt B2RTY4) | inactive: -0.129 | inactive: 0.066 | inactive: -0.044 |  | inactive: -0.088 | inactive: -0.004 |  | inactive: 0.087 |  |  |
| MT-ATP6 (UniProt P00846) | inactive: 0 | inactive: -0.68 | inactive: -0.178 | inactive: -0.178 | inactive: -0.033 | inactive: -0.06 | inactive: -0.165 | inactive: -0.162 | inactive: -0.072 |  |
| MRPS18C (UniProt Q9Y3D5) | inactive: -0.05 | inactive: 0.017 | inactive: 0 | inactive: -0.022 | inactive: -0.001 | inactive: -0.058 | inactive: 0.114 | inactive: -0.016 | inactive: -0.247 |  |
| MSH3 (UniProt P20585) | inactive: -0.001 | inactive: -0.002 | inactive: 0.054 | inactive: -0.053 | inactive: 0.01 | inactive: 0.068 | inactive: 0.056 | inactive: 0.043 | active: 0.27 |  |
| MYL12B (UniProt O14950) | inactive: 0.047 | inactive: 0.043 | inactive: 0.067 | inactive: 0.143 | inactive: -0.013 | inactive: 0.005 | inactive: -0.015 | inactive: 0.011 | inactive: -0.004 |  |
| MYH11 isoform 2 (UniProt P35749) | inactive: 0.035 | inactive: -0.013 | inactive: 0.028 | inactive: -0.016 | inactive: -0.107 | inactive: 0.056 | inactive: -0.002 | inactive: -0.042 | inactive: -0.024 |  |
| MTURN (UniProt Q8N3F0) | inactive: -0.012 | inactive: 0.126 |  |  |  |  |  | inactive: -0.123 | inactive: -0.012 |  |
| MVD (UniProt P53602) |  | inactive: 0.006 | inactive: -0.043 | inactive: -0.003 | inactive: -0.013 | inactive: 0.003 | inactive: -0.021 | inactive: -0.007 | inactive: 0.065 | inactive: -0.014 |
| MTRES1 (UniProt Q9P0P8) |  |  | inactive: -0.192 |  | inactive: 0.036 | inactive: 0.101 |  |  | inactive: 0.091 |  |
